In patent US20180193456A1 (HENLIUS BIOTECH, published 2018):
Results are given in words; binding and its absence hold for the method and conditions named. Some binding calls cover weakened binding; strength is not graded here.

Chains of the proteins cited; added tags and fusions are not shown. Residues count along the entry.
UniProt P35968, residues 20-1356: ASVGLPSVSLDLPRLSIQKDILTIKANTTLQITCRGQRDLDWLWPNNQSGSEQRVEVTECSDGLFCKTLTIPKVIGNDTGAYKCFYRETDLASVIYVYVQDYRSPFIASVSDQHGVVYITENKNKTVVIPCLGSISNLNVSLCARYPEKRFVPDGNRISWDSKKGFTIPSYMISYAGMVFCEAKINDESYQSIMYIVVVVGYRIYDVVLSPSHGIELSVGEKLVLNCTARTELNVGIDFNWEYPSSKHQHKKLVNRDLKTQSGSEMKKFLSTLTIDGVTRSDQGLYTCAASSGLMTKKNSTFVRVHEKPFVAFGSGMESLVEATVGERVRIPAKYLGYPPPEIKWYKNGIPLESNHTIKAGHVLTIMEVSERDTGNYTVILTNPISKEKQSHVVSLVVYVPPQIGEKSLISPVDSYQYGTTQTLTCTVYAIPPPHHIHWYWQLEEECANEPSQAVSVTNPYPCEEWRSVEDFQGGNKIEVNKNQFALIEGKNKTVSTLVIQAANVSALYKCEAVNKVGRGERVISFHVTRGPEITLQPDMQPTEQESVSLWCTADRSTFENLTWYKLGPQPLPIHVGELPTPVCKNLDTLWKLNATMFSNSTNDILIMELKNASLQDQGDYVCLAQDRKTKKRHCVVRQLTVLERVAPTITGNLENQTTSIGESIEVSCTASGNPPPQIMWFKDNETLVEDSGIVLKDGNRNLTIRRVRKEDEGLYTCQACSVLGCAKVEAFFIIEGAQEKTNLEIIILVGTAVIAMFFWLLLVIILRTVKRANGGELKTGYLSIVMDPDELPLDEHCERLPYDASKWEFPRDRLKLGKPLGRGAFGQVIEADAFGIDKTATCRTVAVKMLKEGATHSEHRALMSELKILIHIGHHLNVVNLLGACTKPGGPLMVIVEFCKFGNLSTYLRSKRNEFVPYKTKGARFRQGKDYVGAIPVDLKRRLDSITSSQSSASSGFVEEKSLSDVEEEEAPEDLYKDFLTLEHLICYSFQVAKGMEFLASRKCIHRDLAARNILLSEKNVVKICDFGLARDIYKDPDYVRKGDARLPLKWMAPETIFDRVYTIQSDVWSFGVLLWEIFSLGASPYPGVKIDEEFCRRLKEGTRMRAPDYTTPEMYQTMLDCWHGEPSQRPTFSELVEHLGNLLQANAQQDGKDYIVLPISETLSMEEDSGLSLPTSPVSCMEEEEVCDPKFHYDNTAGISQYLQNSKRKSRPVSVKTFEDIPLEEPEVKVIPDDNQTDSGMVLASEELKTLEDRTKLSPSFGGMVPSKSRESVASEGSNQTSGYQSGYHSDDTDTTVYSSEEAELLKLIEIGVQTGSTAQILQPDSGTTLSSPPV

Key:
[1] = molecular target: VEGFR2 on human endothelial cells (human) (UniProt P35968); experiment: flow cytometry on fixed HUVECs, FITC-labelled anti-Fc secondary antibody, GeoMean
[2] = molecular target: VEGFR2 on human endothelial cells (human) (UniProt P35968); experiment: flow cytometry on fixed HUVECs, biotinylated anti-human IgG and streptavidin-PE; FIG. 15 experiment: fixed HUVECs, detection with biotinylated rabbit anti-human IgG then streptavidin-PE
[3] = molecular target: VEGFR2 on human endothelial cells (human) (UniProt P35968); experiment: flow cytometry on fixed HUVECs, biotinylated rabbit anti-human IgG and streptavidin-PE, MFI

Measured: binding

B1: 1121N (antibody, V domains shown)
VH: EVQLVQSGGGLVKPGGSLRLSCAASGFTFSSYSMNWVRQAPGKGLEWVSSISSSSSYIYYADSVKGRFTISRDNAKNSLYLQMNSLRAEDTAVYYCARVTDAFDIWGQGTMVTVSS
VL: DIQMTQSPSSVSASIGDRVTITCRASQGIDNWLGWYQQKPGKAPKLLIYDASNLDTGVPSRFSGSGSGTYFTLTISSLQAEDFAVYFCQQAKAFPPTFGGGTKVDIKG
notes: Anti-VEGFR2 antibody of U.S. Pat. No. 7,498,414, positive control; Entries run into the start of the constant domains
binds: all assays above
